Test results from PubChem BioAssay AID248 (DTP/NCI, 2004).
The list is a part of this screen's results and no random one: it gathers tests that were run many times, whatever their T/C, doses with no T/C, and many T/C values between a quarter and a half above the control. Further doses and runs are listed elsewhere. T/C: endpoint of the treated group in % of that of the vehicle group. Some doses have a count of surviving animals in place of a T/C: the source holds a T/C of zero for them, seemingly a mark for toxic or unscored doses. Some survivor counts are full or nearly so, which does not show that the dose was tolerated: survival well below the control is almost never listed, so the zero probably covers shortened survival too. Survivors were counted at the toxicity check, usually on the fifth day, unless a day is given; later deaths do not show. Schedules are NCI's codes, read here as Q, the interval in days (D) or hours (H), X, the number of doses. For survival time, the PubChem record calls one and a half times the control and up active, and a quarter to a half above the control has no call in these data; cut-offs in other NCI protocols can differ. Some entries hold several experiments; their values stand side by side, smallest first. Marks such as (2×) stand for listed records that agree. Some schedules carry Z or #; the key to these is not given. Some T/C values are followed by the survivors on the day toxicity was checked, most often the fifth; where none is given, no animal had died by that day.

System: L1210 leukemia ip in BDF1 mice, survival T/C
Test: NCI In Vivo Anticancer Drug Screen. Data for tumor model L1210 Leukemia (intraperitoneal) in B6D2F1 (BDF1) mice
Settings: T/C endpoint: mean survival time, higher T/C = longer survival

N=[N+]=CC(=O)OCC(N)C(=O)O (stereo not given)
T/C (dose: 0.12 mg/kg/injection, schedule: Q#A X Z (ip), vehicle: saline): 137 % of control
T/C (dose: 0.25 mg/kg/injection, schedule: Q#A X Z (ip), vehicle: saline): 140 and 141 % of control
T/C (dose: 0.43 mg/kg/injection, schedule: Q01DX009 (ip), vehicle: saline): 131 % of control
T/C (dose: 0.5 mg/kg/injection, schedule: Q01DX010 (ip), vehicle: saline): 129 % of control
T/C (dose: 0.5 mg/kg/injection, schedule: Q#A X Z (ip), vehicle: saline): 136 and 145 % of control
T/C (dose: 1.0 mg/kg/injection, schedule: Q01DX005 (ip), vehicle: saline): 126 % of control
T/C (dose: 1.0 mg/kg/injection, schedule: Q01DX009 (ip), vehicle: saline): 126 % of control
T/C (dose: 1.0 mg/kg/injection, schedule: Q01DX010 (ip), vehicle: saline): 127 % of control
T/C (dose: 1.0 mg/kg/injection, schedule: Q01DX Z (ip), vehicle: saline): 127 % of control
T/C (dose: 1.0 mg/kg/injection, schedule: Q#A X Z (ip), vehicle: saline): 136 and 149 % of control
T/C (dose: 1.25 mg/kg/injection, schedule: Q01DX Z (ip), vehicle: saline): 146 % of control
T/C (dose: 1.44 mg/kg/injection, schedule: Q01DX Z (ip), vehicle: carboxymethylcellulose (CMC)): 128 % of control
T/C (dose: 1.57 mg/kg/injection, schedule: Q01DX010 (ip), vehicle: saline): 126, 127, 131, 139 % of control
T/C (dose: 2.0 mg/kg/injection, schedule: Q01DX009 (ip), vehicle: saline): 133 % of control
T/C (dose: 2.0 mg/kg/injection, schedule: Q01DX010 (ip), vehicle: saline): 131 and 133 % of control
T/C (dose: 2.0 mg/kg/injection, schedule: Q01DX Z (ip), vehicle: saline): 130, 134 [5 of 6 alive], 137 % of control
T/C (dose: 2.0 mg/kg/injection, schedule: Q#A X Z (ip), vehicle: saline): 136 and 149 % of control
T/C (dose: 2.4 mg/kg/injection, schedule: Q01DX Z (ip), vehicle: carboxymethylcellulose (CMC)): 131 % of control [9 of 10 alive]
T/C (dose: 2.5 mg/kg/injection, schedule: Q01DX Z (ip), vehicle: saline): 146 % of control
T/C (dose: 3.13 mg/kg/injection, schedule: Q01DX010 (ip), vehicle: saline): 129, 130, 134, 144 % of control
T/C (dose: 3.3 mg/kg/injection, schedule: Q01DX009 (ip), vehicle: saline): 115 (2×), 128, 134 % of control
T/C (dose: 3.6 mg/kg/injection, schedule: Q01DX Z (ip), vehicle: carboxymethylcellulose (CMC)): 127 and 134 % of control
T/C (dose: 4.0 mg/kg/injection, schedule: Q01DX005 (ip), vehicle: saline): 133 % of control
T/C (dose: 4.0 mg/kg/injection, schedule: Q01DX006 (iv), vehicle: saline): 127 % of control
T/C (dose: 4.0 mg/kg/injection, schedule: Q01DX009 (ip), vehicle: saline): 140 % of control
T/C (dose: 4.0 mg/kg/injection, schedule: Q01DX009 (sc), vehicle: saline): 129 % of control
T/C (dose: 4.0 mg/kg/injection, schedule: Q01DX Z (ip), vehicle: saline): 144 % of control
T/C (dose: 4.0 mg/kg/injection, schedule: Q03HX024 (ip), vehicle: saline): 139 % of control
T/C (dose: 4.0 mg/kg/injection, schedule: Q## X024 (ip), vehicle: saline): 135 % of control
T/C (dose: 4.0 mg/kg/injection, schedule: Q#A X Z (ip), vehicle: saline): 132 % of control
T/C (dose: 4.1 mg/kg/injection, schedule: Q02DX010 (ip), vehicle: carboxymethylcellulose (CMC)): 131 and 139 % of control
T/C (dose: 5.0 mg/kg/injection, schedule: Q01DX Z (ip), vehicle: saline): 138 % of control
T/C (dose: 5.3 mg/kg/injection, schedule: Q01DX015 (ip), vehicle: saline): 144 % of control
T/C (dose: 6.0 mg/kg/injection, schedule: Q02DX010 (ip), vehicle: carboxymethylcellulose (CMC)): 136 % of control
T/C (dose: 6.02 mg/kg/injection, schedule: Q02DX010 (ip), vehicle: carboxymethylcellulose (CMC)): 140 % of control
T/C (dose: 6.2 mg/kg/injection, schedule: Q02DX008 (ip), vehicle: saline): 125 % of control
T/C (dose: 6.2 mg/kg/injection, schedule: Q02DX010 (ip), vehicle: carboxymethylcellulose (CMC)): 141 and 148 % of control
T/C (dose: 6.25 mg/kg/injection, schedule: Q01DX010 (ip), vehicle: saline): 145, 152 (2×), 158 % of control
T/C (dose: 6.5 mg/kg/injection, schedule: Q01DX009 (ip), vehicle: saline): 131, 133, 134, 148 % of control
T/C (dose: 6.6 mg/kg/injection, schedule: Q02DX010 (ip), vehicle: carboxymethylcellulose (CMC)): 146 % of control
T/C (dose: 6.8 mg/kg/injection, schedule: Q02DX010 (ip), vehicle: carboxymethylcellulose (CMC)): 132 % of control
T/C (dose: 7.2 mg/kg/injection, schedule: Q01DX Z (ip), vehicle: carboxymethylcellulose (CMC)): 130 % of control
T/C (dose: 7.2 mg/kg/injection, schedule: Q02DX010 (ip), vehicle: other): 142 and 147 % of control
T/C (dose: 8.0 mg/kg/injection, schedule: Q01DX005 (ip), vehicle: saline): 132 % of control
T/C (dose: 8.0 mg/kg/injection, schedule: Q01DX006 (iv), vehicle: saline): 137 % of control
T/C (dose: 8.0 mg/kg/injection, schedule: Q01DX009 (oral), vehicle: saline): 128 % of control
T/C (dose: 8.0 mg/kg/injection, schedule: Q01DX009 (sc), vehicle: saline): 143 % of control
T/C (dose: 8.0 mg/kg/injection, schedule: Q01DX Z (oral), vehicle: saline): 125 % of control (2×)
T/C (dose: 8.0 mg/kg/injection, schedule: Q01DX Z (sc), vehicle: saline): 143 % of control
T/C (dose: 8.0 mg/kg/injection, schedule: Q03HX024 (ip), vehicle: saline): 139 % of control
survivor count (dose: 8.0 mg/kg/injection, schedule: Q03HX024 (ip), vehicle: water): 8 of 10
T/C (dose: 8.0 mg/kg/injection, schedule: Q03HX024 (oral), vehicle: saline): 141 % of control
T/C (dose: 8.0 mg/kg/injection, schedule: Q## X016 (ip), vehicle: saline): 134 % of control
T/C (dose: 8.0 mg/kg/injection, schedule: Q## X024 (ip), vehicle: saline): 147 % of control
T/C (dose: 8.0 mg/kg/injection, schedule: Q## X024 (oral), vehicle: saline): 134 % of control
T/C (dose: 9.4 mg/kg/injection, schedule: Q02DX010 (ip), vehicle: carboxymethylcellulose (CMC)): 142 and 146 % of control
T/C (dose: 9.89 mg/kg/injection, schedule: Q02DX010 (ip), vehicle: carboxymethylcellulose (CMC)): 131, 145, 146, 152, 153 % of control
T/C (dose: 10.0 mg/kg/injection, schedule: Q01DX Z (ip), vehicle: saline): 133 % of control
T/C (dose: 10.0 mg/kg/injection, schedule: Q02DX010 (ip), vehicle: carboxymethylcellulose (CMC)): 132, 143, 144 % of control
T/C (dose: 10.0 mg/kg/injection, schedule: Q04DX002 (ip), vehicle: saline): 95, 107, 116, 135 % of control
T/C (dose: 11.0 mg/kg/injection, schedule: Q02DX010 (ip), vehicle: carboxymethylcellulose (CMC)): 141, 143, 145, 151 % of control
T/C (dose: 12.0 mg/kg/injection, schedule: Q03DX006 (ip), vehicle: saline): 137 % of control
T/C (dose: 12.5 mg/kg/injection, schedule: Q01DX010 (ip), vehicle: saline): 156, 159, 166, 181 % of control
T/C (dose: 13.0 mg/kg/injection, schedule: Q01DX009 (ip), vehicle: saline): 141, 142, 144, 145 % of control
T/C (dose: 14.0 mg/kg/injection, schedule: Q02DX008 (ip), vehicle: saline): 142 % of control
T/C (dose: 14.0 mg/kg/injection, schedule: Q02DX010 (ip), vehicle: carboxymethylcellulose (CMC)): 143, 158, 161, 163 % of control
T/C (dose: 14.0 mg/kg/injection, schedule: Q07DX003 (ip), vehicle: saline): 125 % of control
T/C (dose: 14.4 mg/kg/injection, schedule: Q01DX Z (ip), vehicle: carboxymethylcellulose (CMC)): 136 % of control
T/C (dose: 15.0 mg/kg/injection, schedule: Q02DX010 (ip), vehicle: carboxymethylcellulose (CMC)): 138 % of control
T/C (dose: 15.0 mg/kg/injection, schedule: Q02DX010 (ip), vehicle: other): 142 % of control
T/C (dose: 15.5 mg/kg/injection, schedule: Q02DX010 (ip), vehicle: carboxymethylcellulose (CMC)): 140, 142, 156, 161, 162 % of control
T/C (dose: 16.0 mg/kg/injection, schedule: Q01DX005 (ip), vehicle: saline): 142 % of control
T/C (dose: 16.0 mg/kg/injection, schedule: Q01DX009 (ip), vehicle: saline): 132 and 135 % of control
T/C (dose: 16.0 mg/kg/injection, schedule: Q01DX009 (oral), vehicle: saline): 139 % of control
T/C (dose: 16.0 mg/kg/injection, schedule: Q01DX Z (ip), vehicle: saline): 139 and 143 % of control
T/C (dose: 16.0 mg/kg/injection, schedule: Q01DX Z (oral), vehicle: saline): 139 % of control
T/C (dose: 16.0 mg/kg/injection, schedule: Q02DX010 (ip), vehicle: carboxymethylcellulose (CMC)): 153 (2×), 155, 166 % of control
T/C (dose: 16.0 mg/kg/injection, schedule: Q03HX024 (oral), vehicle: saline): 146 % of control
T/C (dose: 16.0 mg/kg/injection, schedule: Q04DX003 (ip), vehicle: saline): 132 % of control
T/C (dose: 16.0 mg/kg/injection, schedule: Q## X003 (ip), vehicle: saline): 127 % of control
T/C (dose: 16.0 mg/kg/injection, schedule: Q## X008 (ip), vehicle: saline): 143 % of control
T/C (dose: 18.0 mg/kg/injection, schedule: Q01DX014 (ip), vehicle: saline): 141 % of control
T/C (dose: 18.0 mg/kg/injection, schedule: Q01DX015 (ip), vehicle: saline): 148 % of control
T/C (dose: 18.0 mg/kg/injection, schedule: Q01DX Z (ip), vehicle: carboxymethylcellulose (CMC)): 140 % of control
T/C (dose: 20.0 mg/kg/injection, schedule: Q01DX Z (ip), vehicle: saline): 125 % of control
T/C (dose: 20.0 mg/kg/injection, schedule: Q04DX002 (ip), vehicle: saline): 107, 120, 122, 135 % of control
T/C (dose: 21.0 mg/kg/injection, schedule: Q02DX010 (ip), vehicle: carboxymethylcellulose (CMC)): 165, 170, 177, 186 % of control
T/C (dose: 23.0 mg/kg/injection, schedule: Q02DX010 (ip), vehicle: carboxymethylcellulose (CMC)): 159, 160, 166, 167 (2×), 169, 183, 195 % of control
T/C (dose: 24.0 mg/kg/injection, schedule: Q02DX010 (ip), vehicle: carboxymethylcellulose (CMC)): 147, 156, 173, 185 % of control
T/C (dose: 24.0 mg/kg/injection, schedule: Q02DX010 (ip), vehicle: other): 147 % of control
